Measured values as given in patent US8563741B2, “CDK inhibitors containing a zinc binding moiety” (Curis, Inc., priority 2007, dated 2013).
At least one compound was matched to its structure with a doubt left.

Test system: HDAC
Assay: HDAC fluorimetric assay kit (AK-500, Biomol), HeLa nuclear extract
Type: biochemical
Experimental: HDAC inhibitors were screened using an HDAC fluorimetric assay kit (AK-500, Biomol, Plymouth Meeting, Pa.). […] Each assay was setup as follows: Defrosted all kit components and kept on ice until use. Diluted HeLa nuclear extract 1:29 in Assay Buffer (50 mM Tris/Cl, pH 8.0, 137 mM NaCl, 2.7 mM KCl, 1 mM MgCl2). Prepared dilutions of Trichostatin A (TSA, positive control) and tested compounds in assay buffer (5× of final concentration). Diluted Fluor de LysTM Substrate in assay buffer to 100 uM (50 fold=2× final). Diluted Fluor de LysTM developer concentrate 20-fold (e.g. 50 μl plus 950 μl Assay Buffer) in cold assay buffer. […] Allowed diluted Fluor de LysTM Substrate and the samples in the microtiter plate to equilibrate to assay temperature (e.g. 25 or 37° C. Initiated HDAC reactions by adding diluted substrate (25 μl) to each well and mixing thoroughly. Allowed HDAC reactions to proceed for 1 hour and then stopped them by addition of Fluor de LysTM Developer (50 μl). Incubated plate at room temperature (25° C.) for 10-15 min. Read samples in a microtiter-plate reading fluorimeter capable of excitation at a wavelength in the range 350-380 nm and detection of emitted light in the range 440-460 nm.

SMILES	IC50
CC(C)(C)c1cnc(CSc2cnc(NC(=O)c3ccc(OCCCCC(=O)NO)cc3)s2)o1 [Compound 24, N-(5-((5-tert-butyloxazol-2-yl)methylthio)thiazol-2-yl)-4-(5-(hydroxyamino)-5-oxopentyloxy)benzamide]	100 to 1000 nM
CC(C)(C)c1cnc(CSc2nnc(NC(=O)CCCCCCC(=O)NO)s2)o1 [Compound 22, N^1-(5-((5-tert-butyloxazol-2-yl)methylthio)-1,3,4-thiadiazol-2-yl)-N^8-hydroxyoctanediamide]	< 100 nM
